Results on one compound are retold here after patent US8586613B2, “Pyridinium and quinolinium derivatives” (Universidad de Granada, priority 2004, dated 2013).

For the data set, the system named is Balb C mice. Particulars: daily doses for 5 consecutive days, 9 days rest, dose entailing 50% mortality, tested form: dibromide.

Molecules are shown by their SMILES. Structures were worked out from names or drawings and are uncertain.

In the case of `CN(c1ccc(Cl)cc1)c1cc[n+](Cc2cccc(C[n+]3ccc(N(C)c4ccc(Cl)cc4)cc3)c2)cc1`, the “toxicity IC50” value worked out at 17.5 mg/kg.
